Literature values in US20100197018A1, “USE OF SUBSTRATES AS PHARMACOLOGICAL CHAPERONES” (AMICUS THERAPEUTICS, INC., priority 2007, published 2010).

Amino acid sequences for entries named in this document (tags omitted). Residues count along the entry.
UniProt P51688, 21-502 limits assumed: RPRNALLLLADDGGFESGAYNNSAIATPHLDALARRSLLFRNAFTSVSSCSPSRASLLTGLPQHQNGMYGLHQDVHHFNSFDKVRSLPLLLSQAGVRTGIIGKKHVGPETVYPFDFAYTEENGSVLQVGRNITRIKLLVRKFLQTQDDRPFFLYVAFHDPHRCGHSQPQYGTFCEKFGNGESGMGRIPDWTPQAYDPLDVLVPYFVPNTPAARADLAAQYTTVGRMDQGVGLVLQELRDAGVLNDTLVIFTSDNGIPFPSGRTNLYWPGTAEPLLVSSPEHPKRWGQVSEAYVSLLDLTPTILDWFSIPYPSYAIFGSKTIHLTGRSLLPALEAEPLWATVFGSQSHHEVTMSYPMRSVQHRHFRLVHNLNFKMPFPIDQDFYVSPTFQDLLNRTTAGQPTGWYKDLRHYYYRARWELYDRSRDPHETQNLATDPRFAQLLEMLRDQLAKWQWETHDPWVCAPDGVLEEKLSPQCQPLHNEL

Molecular target: heparan-N-sulfatase (Homo sapiens, UniProt P51688)
Details: purified enzyme

pH optimum of the enzyme for the substrate: acidic optimum pHs and 4.2
Compound: O=C(O)[C@H](O)[C@@H](O[C@H]1O[C@H](COS(=O)(=O)O)[C@@H](O)[C@H](O)[C@H]1NS(=O)(=O)O)[C@H](O)[C@@H](O)CO [GlcNS6S-IdOA, O-(α-2-sulphaminoglucosamine 6 sulphate)-(1-3)-L-idonic acid]

Some entries of the source have several records that differ or are many. The other results are left out here. There may be further records. The records of an entry differ for a reason that is not stated; they may come from other doses, times, organisms or constructs than stated.
